Measurements from patent US20250145665A1, “MACROCYCLIC PEPTIDES USEFUL AS MODULATORS OF TNF ALPHA” (Bristol-Myers Squibb Company, priority 2023, published 2025).
Read-outs that look alike come from different tables or passages of the source. Some entries share one result that the patent states for a list of compounds. Starred links: 1 amine or outer side, 2 acyl side, 3 side chain; linkers in the order of their positions; H or OH if unused. Positions of bridges follow the written chain, without caps; N, C: chain ends. Non-standard residues stand in square brackets, D forms with d. Residues, ends and D or L forms follow the SMILES beside them. *: point of attachment. X5 = Cn1nc(C(=O)Nc2ccc(-c3ccc(C[C@H](N[*:1])C(=O)[*:2])cc3)cc2)c2ccccc21; Bip(4'-NHBz) = N[C@@H](Cc1ccc(-c2ccc(NC(=O)c3ccccc3)cc2)cc1)C(=O)O; dArg(ω-(2S)-2,3-diOHpropyl) = N=C(NCCC[C@@H](N)C(=O)O)NC[C@H](O)CO; Bip(4'-NH) = O=C([C@H](Cc1ccc(-c2ccc(N[*:3])cc2)cc1)N[*:1])[*:2]; Bip(4'-CONHMe) = CNC(=O)c1ccc(-c2ccc(C[C@H](N)C(=O)O)cc2)cc1; Indazole3carbonyl(1-CH2COOH) = O=C(O)Cn1nc(C(=O)*)c2ccccc21; Bip(4'-COOH) = N[C@@H](Cc1ccc(-c2ccc(C(=O)O)cc2)cc1)C(=O)O; Indole3carbonyl(1-CH2COOH) = O=C(O)Cn1cc(C(=O)*)c2ccccc21; X27 = N=C(NCCC[C@@H](N[*:1])C(=O)[*:2])NCCc1ccc2c(c1)OCO2; X66 = N=C(NCCC[C@@H](N[*:1])C(=O)[*:2])NCc1ccc(F)c(F)c1; X4 = N=C(NCCCc1cccc(N)c1)NCCC[C@@H](N[*:1])C(=O)[*:2]; X8 = N=C(NCCC[C@@H](N[*:1])C(=O)[*:2])NCCc1ccc(CN)cc1; dArg(ω-Bn) = N=C(NCCC[C@@H](N)C(=O)O)NCc1ccccc1; Ala(morpholin-4-yl) = N[C@@H](CN1CCOCC1)C(=O)O; Phe(3-CONH2) = NC(=O)c1cccc(C[C@H](N)C(=O)O)c1; Bip = N[C@@H](Cc1ccc(-c2ccccc2)cc1)C(=O)O; Ala(4-THP) = N[C@@H](CC1CCOCC1)C(=O)O; X48 = CC(C)(O)Cn1nc(C(=O)*)c2ccccc21; 2Pal = N[C@@H](Cc1ccccn1)C(=O)O; Cha = N[C@@H](CC1CCCCC1)C(=O)O; Chg = N[C@H](C(=O)O)C1CCCCC1; Tle = CC(C)(C)[C@H](N)C(=O)O; Sar = CNCC(=O)O

By UniProt entry, the sequences of proteins in these tests, tags left out. Residues count along the entry.
UniProt P01375, 77-233 limits assumed: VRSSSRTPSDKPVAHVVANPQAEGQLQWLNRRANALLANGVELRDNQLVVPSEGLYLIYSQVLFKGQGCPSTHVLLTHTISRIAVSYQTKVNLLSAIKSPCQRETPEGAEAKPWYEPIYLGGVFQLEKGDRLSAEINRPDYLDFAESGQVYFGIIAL

Target: TNFα (Homo sapiens, UniProt P01375)
Experiment: TNF-Induced HEK-Blue Assay
Assay type: cell-based
Details: read-out: IC50 values measured in the TNF induced HEK-Blue assay
[1] = summary statement for all examples

Row | SMILES | IC50 [µM] | IC50 [1] [µM]
1 | CC(C)C[C@@H]1NC(=O)[C@H](CCCNC(=N)N)NC(=O)[C@H](C(C)C)NC(=O)[C@@H]2CCCN2C(=O)[C@H](C(C)C)NC(=O)[C@@H](CCCNC(=N)NCc2ccc(F)c(F)c2)NC(=O)[C@H](CC(=O)O)NC(=O)[C@@H]2CCCN2C(=O)CN(C)C(=O)[C@H](Cc2ccc(-c3ccc(NC(=O)c4nn(C)c5ccccc45)cc3)cc2)NC(=O)[C@H](Cc2ccc(-c3ccccc3)cc2)NC(=O)[C@H](CN2CCOCC2)NC(=O)CSC[C@@H](C(=O)NCC(N)=O)NC1=O [Example 473] ({CH2CO}-[Ala(morpholin-4-yl)][Bip][X5][Sar]PD[X66]VPVRLCG-NH2; thioether N-13) | ≤ 25 | 
2 | CC(C)C[C@@H]1NC(=O)[C@H](CCCNC(=N)N)NC(=O)[C@H](C(C)C)NC(=O)[C@@H]2CCCN2C(=O)[C@H](C(C)C)NC(=O)[C@@H](CCCNC(=N)NC[C@H](O)CO)NC(=O)[C@H](CC(=O)O)NC(=O)[C@@H]2CCCN2C(=O)CN(C)C(=O)[C@H](Cc2ccc(-c3ccc(NC(=O)c4nn(CC(=O)O)c5ccccc45)cc3)cc2)NC(=O)[C@H](Cc2ccc(-c3ccccc3)cc2)NC(=O)[C@H](CN2CCOCC2)NC(=O)CSC[C@@H](C(=O)NCC(N)=O)NC1=O [Example 475] ({CH2CO}-[Ala(morpholin-4-yl)][Bip][Bip(4'-NH)](Indazole3carbonyl(1-CH2COOH))[Sar]PD[dArg(ω-(2S)-2,3-diOHpropyl)]VPVRLCG-NH2; thioether N-13) |  | ≤ 25
3 | CC(C)C[C@@H]1NC(=O)[C@H](CCCNC(=N)N)NC(=O)[C@H](C(C)C)NC(=O)[C@@H]2CCCN2C(=O)[C@H](C(C)C)NC(=O)[C@@H](CCCNC(=N)NCCc2ccc3c(c2)OCO3)NC(=O)[C@H](CC(=O)O)NC(=O)[C@@H]2CCCN2C(=O)CN(C)C(=O)[C@H](Cc2ccc(-c3ccc(NC(=O)c4nn(CC(=O)O)c5ccccc45)cc3)cc2)NC(=O)[C@H](Cc2ccc(-c3ccccc3)cc2)NC(=O)[C@H](CN2CCOCC2)NC(=O)CSC[C@@H](C(=O)NCC(N)=O)NC1=O [Example 408] ({CH2CO}-[Ala(morpholin-4-yl)][Bip][Bip(4'-NH)](Indazole3carbonyl(1-CH2COOH))[Sar]PD[X27]VPVRLCG-NH2; thioether N-13) |  | ≤ 25
4 | CC[C@H](C)[C@@H]1NC(=O)[C@@H]2CCCN2C(=O)[C@H]([C@@H](C)CC)NC(=O)[C@@H](CCCNC(=N)N)NC(=O)[C@H](CC(=O)O)NC(=O)[C@H](Cc2ccccn2)NC(=O)CN(C)C(=O)[C@H](Cc2ccc(-c3ccc(NC(=O)c4ccccc4)cc3)cc2)NC(=O)[C@H](Cc2ccc(-c3ccccc3)cc2)NC(=O)[C@H](C(C)(C)C)NC(=O)CSC[C@@H](C(=O)NCC(N)=O)NC(=O)[C@H](CC(C)C)NC(=O)[C@H](Cc2cccc(C(N)=O)c2)NC1=O [Example 367] ({CH2CO}-[Tle][Bip][Bip(4'-NHBz)][Sar][2Pal]D[dR]IPI[Phe(3-CONH2)]LCG-NH2; thioether N-13) |  | ≤ 25
5 | CC[C@H](C)[C@@H]1NC(=O)[C@@H](CCCNC(=N)N)NC(=O)[C@H](CC(=O)O)NC(=O)[C@H](Cc2cnc[nH]2)NC(=O)CN(C)C(=O)[C@H](Cc2ccc(-c3ccc(NC(=O)c4ccccc4)cc3)cc2)NC(=O)[C@H](Cc2ccc(-c3ccccc3)cc2)NC(=O)[C@H](CC2CCCCC2)NC(=O)CSC[C@@H](C(=O)NCC(N)=O)NC(=O)[C@H](CC(C)C)NC(=O)[C@H](Cc2cnc[nH]2)NC(=O)[C@H](C(C)C)NC(=O)[C@@H]2CCCN2C1=O [Example 315] ({CH2CO}-[Cha][Bip][Bip(4'-NHBz)][Sar]HD[dR]IPVHLCG-NH2; thioether N-13) |  | ≤ 25
6 | CC(C)C[C@@H]1NC(=O)[C@H](CCCNC(=N)N)NC(=O)[C@H](C(C)C)NC(=O)[C@@H]2CCCN2C(=O)[C@H](C(C)C)NC(=O)[C@@H](CCCNC(=N)N)NC(=O)[C@H](CC(=O)O)NC(=O)[C@@H]2CCCN2C(=O)CN(C)C(=O)[C@H](Cc2ccc(-c3ccc(NC(=O)c4nn(CC(C)(C)O)c5ccccc45)cc3)cc2)NC(=O)[C@H](Cc2ccc(-c3ccccc3)cc2)NC(=O)[C@H](CN2CCOCC2)NC(=O)CSC[C@@H](C(=O)NCC(N)=O)NC1=O [Example 355] ({CH2CO}-[Ala(morpholin-4-yl)][Bip][Bip(4'-NH)](X48)[Sar]PD[dR]VPVRLCG-NH2; thioether N-13) |  | ≤ 25
7 | CNC(=O)c1ccc(-c2ccc(C[C@@H]3NC(=O)[C@H](CN4CCOCC4)NC(=O)CSC[C@@H](C(=O)NCC(N)=O)NC(=O)[C@H](CC(C)C)NC(=O)[C@H](CCCNC(=N)N)NC(=O)[C@H](C(C)C)NC(=O)[C@@H]4CCCN4C(=O)[C@H](C(C)C)NC(=O)[C@@H](CCCNC(=N)NCCc4ccc(CN)cc4)NC(=O)[C@H](CC(=O)O)NC(=O)[C@@H]4CCCN4C(=O)CN(C)C(=O)[C@H](Cc4ccc(-c5ccc(NC(=O)c6nn(CC(=O)O)c7ccccc67)cc5)cc4)NC3=O)cc2)cc1 [Example 431] ({CH2CO}-[Ala(morpholin-4-yl)][Bip(4'-CONHMe)][Bip(4'-NH)](Indazole3carbonyl(1-CH2COOH))[Sar]PD[X8]VPVRLCG-NH2; thioether N-13) |  | ≤ 25
8 | CC[C@H](C)[C@@H]1NC(=O)[C@@H]2CCCN2C(=O)[C@H]([C@@H](C)CC)NC(=O)[C@@H](CCCNC(=N)N)NC(=O)[C@H](CC(=O)O)NC(=O)[C@H](Cc2ccccc2)NC(=O)CN(C)C(=O)[C@H](Cc2ccc(-c3ccc(NC(=O)c4nn(CC(=O)O)c5ccccc45)cc3)cc2)NC(=O)[C@H](Cc2ccc(-c3ccc(C(=O)O)cc3)cc2)NC(=O)[C@H](C(C)(C)C)NC(=O)CSC[C@@H](C(=O)NCC(N)=O)NC(=O)[C@H](CC(C)C)NC(=O)[C@H](Cc2cnc[nH]2)NC1=O [Example 359] ({CH2CO}-[Tle][Bip(4'-COOH)][Bip(4'-NH)](Indazole3carbonyl(1-CH2COOH))[Sar]FD[dR]IPIHLCG-NH2; thioether N-13) |  | ≤ 25
9 | CC(C)C[C@@H]1NC(=O)[C@H](Cc2cccc(C(N)=O)c2)NC(=O)[C@H](C(C)C)NC(=O)[C@@H]2CCCN2C(=O)[C@H](C(C)C)NC(=O)[C@@H](CCCNC(=N)NCc2ccccc2)NC(=O)[C@H](CC(=O)O)NC(=O)[C@H](Cc2ccc(O)cc2)NC(=O)CN(C)C(=O)[C@H](Cc2ccc(-c3ccc(NC(=O)c4nn(CC(=O)O)c5ccccc45)cc3)cc2)NC(=O)[C@H](Cc2ccc(-c3ccccc3)cc2)NC(=O)[C@H](CN2CCOCC2)NC(=O)CSC[C@@H](C(=O)NCC(N)=O)NC1=O [Example 600] ({CH2CO}-[Ala(morpholin-4-yl)][Bip][Bip(4'-NH)](Indazole3carbonyl(1-CH2COOH))[Sar]YD[dArg(ω-Bn)]VPV[Phe(3-CONH2)]LCG-NH2; thioether N-13) |  | ≤ 25
10 | CC(C)C[C@@H]1NC(=O)[C@H](CCCNC(=N)N)NC(=O)[C@H](C(C)C)NC(=O)[C@@H]2CCCN2C(=O)[C@H](C(C)C)NC(=O)[C@@H](CCCNC(=N)NCCCc2cccc(N)c2)NC(=O)[C@H](CC(=O)O)NC(=O)[C@@H]2CCCN2C(=O)CN(C)C(=O)[C@H](Cc2ccc(-c3ccc(NC(=O)c4nn(CC(=O)O)c5ccccc45)cc3)cc2)NC(=O)[C@H](Cc2ccc(-c3ccccc3)cc2)NC(=O)[C@H](CN2CCOCC2)NC(=O)CSC[C@@H](C(=O)NCC(N)=O)NC1=O [Example 393] ({CH2CO}-[Ala(morpholin-4-yl)][Bip][Bip(4'-NH)](Indazole3carbonyl(1-CH2COOH))[Sar]PD[X4]VPVRLCG-NH2; thioether N-13) |  | ≤ 25
11 | CC[C@H](C)[C@@H]1NC(=O)[C@@H](CCCNC(=N)NCc2ccccc2)NC(=O)[C@H](CC(=O)O)NC(=O)[C@@H]2CCCN2C(=O)CN(C)C(=O)[C@H](Cc2ccc(-c3ccc(NC(=O)c4cn(CC(=O)O)c5ccccc45)cc3)cc2)NC(=O)[C@H](Cc2ccc(-c3ccccc3)cc2)NC(=O)[C@H](CN2CCOCC2)NC(=O)CSC[C@@H](C(=O)NCC(N)=O)NC(=O)[C@H](CC(C)C)NC(=O)[C@H](Cc2cnc[nH]2)NC(=O)[C@H](C(C)C)NC(=O)[C@@H]2CCCN2C1=O [Example 533] ({CH2CO}-[Ala(morpholin-4-yl)][Bip][Bip(4'-NH)](Indole3carbonyl(1-CH2COOH))[Sar]PD[dArg(ω-Bn)]IPVHLCG-NH2; thioether N-13) |  | ≤ 25
12 | CC[C@H](C)[C@@H]1NC(=O)[C@@H](CCCNC(=N)N)NC(=O)[C@H](CC(=O)O)NC(=O)[C@H](Cc2cnc[nH]2)NC(=O)CN(C)C(=O)[C@H](Cc2ccc(-c3ccc(NC(=O)c4ccccc4)cc3)cc2)NC(=O)[C@H](Cc2ccc(-c3ccccc3)cc2)NC(=O)[C@H](CC2CCCCC2)NC(=O)CSC[C@@H](C(=O)NCC(N)=O)NC(=O)[C@H](CC(C)C)NC(=O)[C@H](Cc2cnc[nH]2)NC(=O)[C@H](C2CCCCC2)NC(=O)[C@@H]2CCCN2C1=O [Example 490] ({CH2CO}-[Cha][Bip][Bip(4'-NHBz)][Sar]HD[dR]IP[Chg]HLCG-NH2; thioether N-13) |  | ≤ 25
13 | CC(C)C[C@@H]1NC(=O)[C@H](CCCNC(=N)N)NC(=O)[C@H](C(C)C)NC(=O)[C@@H]2CCCN2C(=O)[C@H](C(C)C)NC(=O)[C@@H](CCCNC(=N)N)NC(=O)[C@H](CC(=O)O)NC(=O)[C@@H]2CCCN2C(=O)CN(C)C(=O)[C@H](Cc2ccc(-c3ccc(NC(=O)c4nn(C)c5ccccc45)cc3)cc2)NC(=O)[C@H](Cc2ccc(-c3ccccc3)cc2)NC(=O)[C@H](CC2CCOCC2)NC(=O)CSC[C@@H](C(=O)NCC(N)=O)NC1=O [Example 304] ({CH2CO}-[Ala(4-THP)][Bip][X5][Sar]PD[dR]VPVRLCG-NH2; thioether N-13) | ≤ 25 | 
14 | CC(C)C[C@@H]1NC(=O)[C@H](CCCNC(=N)N)NC(=O)[C@H](C(C)C)NC(=O)[C@@H]2CCCN2C(=O)[C@H](C(C)C)NC(=O)[C@@H](CCCNC(=N)NCc2ccccc2)NC(=O)[C@H](CC(=O)O)NC(=O)[C@@H]2CCCN2C(=O)CN(C)C(=O)[C@H](Cc2ccc(-c3ccc(NC(=O)c4nn(CC(=O)O)c5ccccc45)cc3)cc2)NC(=O)[C@H](Cc2ccc(-c3ccccc3)cc2)NC(=O)[C@H](CN2CCOCC2)NC(=O)CSC[C@@H](C(=O)NCC(N)=O)NC1=O [Example 467] ({CH2CO}-[Ala(morpholin-4-yl)][Bip][Bip(4'-NH)](Indazole3carbonyl(1-CH2COOH))[Sar]PD[dArg(ω-Bn)]VPVRLCG-NH2; thioether N-13) |  | ≤ 25
